Several values for one entry are separate records, joined by “and”; a condition that tells them apart may be missing. Equal values may be shown once.

In this data set the test system is HCT-116 cells. The data set can be described thus: Ratiometric determination of labile Fe2+ concentration in HCT-116 cells. It is filed as cell-based, human. How it is done:
Bovine aortic endothelial cells BAEC cells, at an approximately density of 1.3 million/ml in complete EBM medium, were incubated with 100 μM ferrous ammonium sulfate (FAS, Fe (NH4)2(SO4)2 from a 10 mM stock solution) for overnight at 37° C. in a humid atmosphere of 5% CO2 and then the cells were washed with fresh EBM medium to remove excess Fe^2+. Then cells were incubated with Rh101D (10 μM, from 500 μM stock solution in DMF) at 37° C. for 30 min and then cells were washed with EBM media and then imaged. In addition, some cells were treated firstly with 100 μM Fe^2+ overnight and then the cells were washed with fresh EBM medium. For chelation experiments, Fe^2+-loaded cells or untreated cells were incubated with 1 mM 2,2′-bipyridyl (Bpy) at 37° C. for 30 min, then sensor was added followed by washing with the media, and then imaging was done. Controls were imaged without incubation with Fe^2+ or 2,2′-bipyridyl. HCT-116, a human colon adenocarcinoma cell line were used for concentration determination of Fe^2+ with the help of the ratiometric sensor Rh101D. HCT-116 were maintained in McCoy's 5A medium supplemented with 10% fetal bouvine serum and 5% antibiotic antimycotic in a 5% CO2 atmosphere at 37° C. Cultures were divided 1:2 every 48 h to an approximate cell density of 1.21 million cells/ml and used for experiments after 24 h. All experiments were performed with cells in the logarithmic growth phase.
To determine the concentration of labile Fe^2+ in cells, the ratiometric Fe^2+ sensor Rh101D has been developed. The two-band absorption/fluorescence nature of the ratiometric sensor enables the tracing of the cellular distribution of the sensor itself as well as detecting the labile Fe^2+ pools.
To determine the cellular concentration of Fe^2+, an in-vitro calibration curve was obtained by titrating the sensor, Rh101D (20 μM), with different concentrations of Fe^2+ and a calibration curve was obtained by plotting [Fe^2+] versus fluorescent ratio (F625/F500) (FIG. 50).
The in vitro solution studies have shown that Rh101D can detect Fe^2+ with excellent selectivity and the Fe^2+ concentration is correlated with the ratio of fluorescence intensities at 625 nm to 500 nm (FIG. 50). To examine whether it can detect Fe^2+ concentration in living systems, HCT-116, a human colon adenocarcinoma cell line was used to test its ability in determining endogenous Fe^2+ ions in live cells. […] However, in FIG. 51B, red color images are located in limited areas (certain organelles) in the cells, indicating Fe^2+ ions are in certain organelles. FIGS. 51D, H, and L are the ratiometric images of Rh101D at yellow and red channels. Fitting the ratiometric imaging data to the calibration curve gives Fe^2+ concentration in HCT-116 cells, with a value of ˜10±1 μM determined in the mitochondria of untreated cells, 14±1 μM in the mitochondria of Fe (II) treated cells, and 7±1 μM in the mitochondria of Fe(II)-chelator Bpy treated cells and ˜8±1 μM determined in the lysosomes of untreated cells, 11±1 μM in the lysosomes of Fe (II) treated cells, and 5±1 μM in the lysosomes of Bpy treated cells and the results were summarized in Table 1.

`CN(C)c1ccc(/C=C/C=N/N2C(=O)c3ccccc3C23c2cc4c5c(c2Oc2c3cc3c6c2CCCN6CCC3)CCCN5CCC4)cc1` [Rh101D]: the “Fe(II) concentration in lysosome, Bpy treated cells” value stood at 5 ± 1 µM; the “Fe(II) concentration in lysosome, Fe(II) treated cells” value was 11 ± 1 µM; the “Fe(II) concentration in lysosome, Untreated cells” value is ~8 ± 1 µM and 8 ± 1 µM; the “Fe(II) concentration in mitochondria, Bpy treated cells” value turned out to be 7 ± 1 µM. Besides, the “Fe(II) concentration in mitochondria, Fe(II) treated cells” value was found to be 14 ± 1 µM. For the same compound, the “Fe(II) concentration in mitochondria, Untreated cells” value (ratio F625/F500 fitted to calibration curve) is ~10 ± 1 µM and 10 ± 1 µM.

The values above are taken from US11685741B2, “Fluorescent probes” (University of Massachusetts, priority 2017, dated 2023).
